Some entries share one result that the patent states for a list of compounds.
System: transformed human cell lines (A549, HT29, Saos-2)
Assay: 72-h MTT cytotoxicity assay, average over cell lines
Assay type: cell-based
Conditions: in vitro, read-out: IC50 value (average) against one or more transformed human cell lines, 72-h MTT cytotoxicity assay
Protocol: The compounds from the examples above were subjected to a standard cellular proliferation assay using human tumour cell lines obtained from the ATCC (American Type Culture Collection, 10801 University Boulevard, Manessas, Va. 20110-2209, USA). Standard 72-h MTT (thiazolyl blue; 3-[4,5-dimethylthiazol-2-yl]-2,5-diphenyltetrazolium bromide) assays were performed. In short: cells were seeded into 96-well plates according to doubling time and incubated overnight at 37° C. Test compounds were made up in DMSO and a 1/3 dilution series prepared in 100 μL cell media, added to cells (in triplicates) and incubated for 72 ho at 37° C. MTT was made up as a stock of 5 mg/mL in cell media and filter-sterilised. Media was removed from cells followed by a wash with 200 μL PBS. MTT solution was then added at 20 μL per well and incubated in the dark at 37° C. for 4 h. MTT solution was removed and cells again washed with 200 μL PBS. MTT dye was solubilised with 200 μL per well of DMSO with agitation. Absorbance was read at 540 nm and data analysed using curve-fitting software (GraphPad Prism version 3.00 for Windows, GraphPad Software, San Diego Calif. USA) to determine IC50 values (concentration of test compound which inhibits cell growth by 50%). Various modifications and variations of the described aspects of the invention will be apparent to those skilled in the art without departing from the scope and spirit of the invention. Although the invention has been described in connection with specific preferred embodiments, it should be understood that the invention as claimed should not be unduly limited to such specific embodiments. Indeed, various modifications of the described modes of carrying out the invention which are obvious to those skilled in the relevant fields are intended to be within the scope of the following claims.

Row | Structure (SMILES) | IC50
1 | Cc1nc(C)c(-c2ccnc(Nc3cccnc3)n2)s1 [Compound 1, [4-(2,4-Dimethyl-thiazol-5-yl)-pyrimidin-2-yl]-pyridin-3-yl-amine] | < 5 µM
2 | COc1ccc(Nc2nccc(-c3sc(N)nc3C)n2)cn1 [Compound 5, [4-(2-Amino-4-methyl-thiazol-5-yl)-pyrimidin-2-yl]-(6-methoxy-pyridin-3-yl)-amine] | < 5 µM
3 | COc1ccc(Nc2nccc(-c3sc(C)nc3C)n2)cn1 [Compound 6, [4-(2,4-Dimethyl-thiazol-5-yl)-pyrimidin-2-yl]-(6-methoxy-pyridin-3-yl)-amine] | < 5 µM
4 | Cc1nc(N)sc1-c1ccnc(Nc2ccc(Cl)nc2)n1 [Compound 7, [4-(2-Amino-4-methyl-thiazol-5-yl)-pyrimidin-2-yl]-(6-chloro-pyridin-3-yl)-amine] | < 5 µM
5 | CNc1nc(C)c(-c2ccnc(Nc3ccc(Cl)nc3)n2)s1 [Compound 9, (6-Chloro-pyridin-3-yl)-[4-(4-methyl-2-methylamino-thiazol-5-yl)-pyrimidin-2-yl]-amine] | < 5 µM

Molecular target: T1, one or more protein kinases selected from CDK1/cyclin B, CDK2/cyclin A, CDK2/cyclin E, CDK4/cyclin D1, CDK7/cyclin H, CDK9/cyclin T1, aurora kinase, GSK3β and …
T1 construct: Recombinant protein kinases and kinase complexes were produced or obtained commercially
Assay: Kinase inhibition, one or more protein kinases
Assay type: biochemical
Conditions: against one or more of the kinases

Row | Structure (SMILES) | IC50
6 | Cc1nc(C)c(-c2ccnc(Nc3ccc(Cl)nc3)n2)s1 [Compound 3, (6-Chloro-pyridin-3-yl)-[4-(2,4-dimethyl-thiazol-5-yl)-pyrimidin-2-yl]-amine] | < 1 µM
7 | COc1ccc(Nc2nccc(-c3sc(C)nc3C)n2)cn1 [Compound 6, [4-(2,4-Dimethyl-thiazol-5-yl)-pyrimidin-2-yl]-(6-methoxy-pyridin-3-yl)-amine] | < 1 µM
8 | COCCNc1nc(C)c(-c2ccnc(Nc3ccc(OC)nc3)n2)s1 [Compound 13, {4-[2-(2-Methoxy-ethylamino)-4-methyl-thiazol-5-yl]-pyrimidin-2-yl}-(6-methoxy-pyridin-3-yl)-amine] | < 1 µM
9 | Cc1nc(C)c(-c2ccnc(Nc3ccc(N4CCCC4)nc3)n2)s1 [Compound 14, [4-(2,4-Dimethyl-thiazol-5-yl)-pyrimidin-2-yl]-(6-pyrrolidin-1-yl-pyridin-3-yl)-amine] | < 1 µM

Source: patent US20060241297A1, “Pyridinylamino-pyrimidine derivatives as protein kinase inhibitors” (Cyclacel Limited, priority 2003, published 2006)
